No constants are given. Whether binding was seen depends on the method and setting. Some results given as binding are weak or reduced against the parent protein; the word gives no strength.
Biological target: recombinant hGM-CSF derived from yeast (Leukine, Berlex) (human) (UniProt P04141)
Assay: SPR (Biacore)

The chains behind the UniProt entries cited, without tags or fusion partners. Where a name states a change or a piece, a line headed by the entry shows the natural chain unless it says otherwise.
UniProt P04141: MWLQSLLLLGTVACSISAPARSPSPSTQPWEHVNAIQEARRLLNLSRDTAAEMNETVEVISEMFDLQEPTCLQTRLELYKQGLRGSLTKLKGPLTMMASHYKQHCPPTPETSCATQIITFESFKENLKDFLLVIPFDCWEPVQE

- binding: binds
B1: EV1019 (antibody, human IgG1, lambda, V domains shown)
VH: QAQLVESGGGVVKPGGSLRLSCISSKFTFSSHAMHWVRQAPGKGLEWVAVIWHDGSKKYYADSVKGRFSVSRDNSKNTLFLQMDSLRAEDTAVYFCGKEWVGGTCDSWGQGTLVIVSS
VL: QPALTQEASVSGTVGQTVTLLCSGNSSNIGSYAVGWYQQISRGAPKIVVFGKSPASGIPDRFSGSKSGTTASLLVSGLQPEDEADYYCSTWDSRLSAVLFGGGTKLTVLR

From patent publication US20110182905A1
